No constants are given. Whether binding was seen depends on the method and setting. In cells and extracts the contact can be indirect. Some entries that bind do so weakly or less than the wild type.
Biological target: β-catenin (human (endogenous in breast CSCs sorted from MDA-MB-231)) (UniProt P35222)
Test: co-IP; Dynabeads Protein G immunoprecipitation kit; the precipitating antibody and the cells are not stated

Sequences of proteins named here, by UniProt entry; tags and fusion partners are left off.
UniProt P35222: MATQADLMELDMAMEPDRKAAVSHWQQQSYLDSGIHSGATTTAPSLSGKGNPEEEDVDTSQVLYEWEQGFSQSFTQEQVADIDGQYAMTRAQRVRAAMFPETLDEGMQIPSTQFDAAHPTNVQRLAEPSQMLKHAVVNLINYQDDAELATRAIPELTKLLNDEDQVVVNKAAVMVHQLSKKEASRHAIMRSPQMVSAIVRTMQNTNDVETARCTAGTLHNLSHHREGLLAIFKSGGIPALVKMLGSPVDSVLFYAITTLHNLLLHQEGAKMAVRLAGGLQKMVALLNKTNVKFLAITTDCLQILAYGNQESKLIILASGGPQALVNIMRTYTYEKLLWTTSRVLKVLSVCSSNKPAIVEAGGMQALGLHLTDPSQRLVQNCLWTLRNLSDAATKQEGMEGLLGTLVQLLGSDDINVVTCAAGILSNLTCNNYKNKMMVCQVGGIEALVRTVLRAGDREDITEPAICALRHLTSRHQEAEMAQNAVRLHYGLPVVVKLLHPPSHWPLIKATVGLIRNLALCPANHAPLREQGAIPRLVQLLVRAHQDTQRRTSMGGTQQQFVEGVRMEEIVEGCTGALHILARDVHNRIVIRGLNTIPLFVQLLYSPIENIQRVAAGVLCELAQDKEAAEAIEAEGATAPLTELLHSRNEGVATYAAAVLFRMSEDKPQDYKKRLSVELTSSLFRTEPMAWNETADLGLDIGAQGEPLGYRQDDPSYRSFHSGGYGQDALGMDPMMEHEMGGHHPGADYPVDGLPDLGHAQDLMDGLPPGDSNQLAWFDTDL
UniProt O43707: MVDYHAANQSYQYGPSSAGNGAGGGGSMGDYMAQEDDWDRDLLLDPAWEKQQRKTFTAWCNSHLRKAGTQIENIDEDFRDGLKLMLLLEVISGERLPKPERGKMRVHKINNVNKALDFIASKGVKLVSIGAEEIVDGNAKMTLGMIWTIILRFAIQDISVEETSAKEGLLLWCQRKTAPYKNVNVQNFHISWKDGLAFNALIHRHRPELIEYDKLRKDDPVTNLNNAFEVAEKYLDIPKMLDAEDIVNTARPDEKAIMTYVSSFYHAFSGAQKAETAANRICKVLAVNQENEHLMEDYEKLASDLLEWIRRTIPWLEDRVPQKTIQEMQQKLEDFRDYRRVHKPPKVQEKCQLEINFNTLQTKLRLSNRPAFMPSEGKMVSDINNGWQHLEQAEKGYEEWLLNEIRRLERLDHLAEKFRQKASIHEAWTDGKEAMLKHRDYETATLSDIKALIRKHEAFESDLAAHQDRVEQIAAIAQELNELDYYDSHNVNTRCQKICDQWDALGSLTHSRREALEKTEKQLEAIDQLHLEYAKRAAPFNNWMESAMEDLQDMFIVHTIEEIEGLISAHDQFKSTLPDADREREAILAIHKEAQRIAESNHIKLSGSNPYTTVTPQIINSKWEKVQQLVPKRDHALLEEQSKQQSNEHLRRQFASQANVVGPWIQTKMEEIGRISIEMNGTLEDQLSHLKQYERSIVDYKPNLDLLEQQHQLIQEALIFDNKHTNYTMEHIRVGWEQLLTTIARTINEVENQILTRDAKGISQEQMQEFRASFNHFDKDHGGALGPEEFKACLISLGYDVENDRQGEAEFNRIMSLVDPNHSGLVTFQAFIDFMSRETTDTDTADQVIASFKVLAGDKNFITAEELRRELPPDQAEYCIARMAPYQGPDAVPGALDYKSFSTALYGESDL

## ACTN4 (from UniProt O43707 1-911)
  binding: binds

Reference: paper PMC5712102
